Results reported in publication doi:10.1101/2020.08.27.268672 (bioRxiv, 2020).
These are yes or no findings as the source states them, for the method shown. In cells and extracts the contact can be indirect.

Target: T1, DarB-Strep (Bacillus subtilis) (UniProt O31698)
T1 sequence: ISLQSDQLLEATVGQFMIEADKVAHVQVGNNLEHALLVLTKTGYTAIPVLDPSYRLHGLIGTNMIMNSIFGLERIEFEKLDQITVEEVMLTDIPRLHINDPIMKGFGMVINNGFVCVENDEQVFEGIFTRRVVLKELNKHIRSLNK
Assay: pull-down

Substance	binding
SasB (endogenous) (Bacillus subtilis (endogenous in GP3429)) (enzyme)	no binding
SasA (endogenous) (Bacillus subtilis (endogenous in GP3429)) (enzyme)	no binding
